The target of assay [1] is Plexin B1 on the cell surface of a stable 293 cell line (293/Plexin) (UniProt O43157). Put plainly: flow cytometry on 293/Plexin cells (blocking assay of FIG. 1); bound CD100-His detected with biotinylated anti-His and streptavidin-APC.
Assay [2] has the same target. Put plainly: flow cytometry on 293/Plexin cells (blocking assay of FIG. 1); bound CD100 detected with biotinylated anti-His and streptavidin-APC. (Flow cytometry measures light scatter and fluorescence of single cells or particles in a stream.)

Protein sequences, listed by entry. Tags and fused reporters are not part of them. Lines headed by an entry give the natural chain unless they say otherwise; changes in a name come on top. Residues count along the entry.
UniProt O43157, residues 20-2135: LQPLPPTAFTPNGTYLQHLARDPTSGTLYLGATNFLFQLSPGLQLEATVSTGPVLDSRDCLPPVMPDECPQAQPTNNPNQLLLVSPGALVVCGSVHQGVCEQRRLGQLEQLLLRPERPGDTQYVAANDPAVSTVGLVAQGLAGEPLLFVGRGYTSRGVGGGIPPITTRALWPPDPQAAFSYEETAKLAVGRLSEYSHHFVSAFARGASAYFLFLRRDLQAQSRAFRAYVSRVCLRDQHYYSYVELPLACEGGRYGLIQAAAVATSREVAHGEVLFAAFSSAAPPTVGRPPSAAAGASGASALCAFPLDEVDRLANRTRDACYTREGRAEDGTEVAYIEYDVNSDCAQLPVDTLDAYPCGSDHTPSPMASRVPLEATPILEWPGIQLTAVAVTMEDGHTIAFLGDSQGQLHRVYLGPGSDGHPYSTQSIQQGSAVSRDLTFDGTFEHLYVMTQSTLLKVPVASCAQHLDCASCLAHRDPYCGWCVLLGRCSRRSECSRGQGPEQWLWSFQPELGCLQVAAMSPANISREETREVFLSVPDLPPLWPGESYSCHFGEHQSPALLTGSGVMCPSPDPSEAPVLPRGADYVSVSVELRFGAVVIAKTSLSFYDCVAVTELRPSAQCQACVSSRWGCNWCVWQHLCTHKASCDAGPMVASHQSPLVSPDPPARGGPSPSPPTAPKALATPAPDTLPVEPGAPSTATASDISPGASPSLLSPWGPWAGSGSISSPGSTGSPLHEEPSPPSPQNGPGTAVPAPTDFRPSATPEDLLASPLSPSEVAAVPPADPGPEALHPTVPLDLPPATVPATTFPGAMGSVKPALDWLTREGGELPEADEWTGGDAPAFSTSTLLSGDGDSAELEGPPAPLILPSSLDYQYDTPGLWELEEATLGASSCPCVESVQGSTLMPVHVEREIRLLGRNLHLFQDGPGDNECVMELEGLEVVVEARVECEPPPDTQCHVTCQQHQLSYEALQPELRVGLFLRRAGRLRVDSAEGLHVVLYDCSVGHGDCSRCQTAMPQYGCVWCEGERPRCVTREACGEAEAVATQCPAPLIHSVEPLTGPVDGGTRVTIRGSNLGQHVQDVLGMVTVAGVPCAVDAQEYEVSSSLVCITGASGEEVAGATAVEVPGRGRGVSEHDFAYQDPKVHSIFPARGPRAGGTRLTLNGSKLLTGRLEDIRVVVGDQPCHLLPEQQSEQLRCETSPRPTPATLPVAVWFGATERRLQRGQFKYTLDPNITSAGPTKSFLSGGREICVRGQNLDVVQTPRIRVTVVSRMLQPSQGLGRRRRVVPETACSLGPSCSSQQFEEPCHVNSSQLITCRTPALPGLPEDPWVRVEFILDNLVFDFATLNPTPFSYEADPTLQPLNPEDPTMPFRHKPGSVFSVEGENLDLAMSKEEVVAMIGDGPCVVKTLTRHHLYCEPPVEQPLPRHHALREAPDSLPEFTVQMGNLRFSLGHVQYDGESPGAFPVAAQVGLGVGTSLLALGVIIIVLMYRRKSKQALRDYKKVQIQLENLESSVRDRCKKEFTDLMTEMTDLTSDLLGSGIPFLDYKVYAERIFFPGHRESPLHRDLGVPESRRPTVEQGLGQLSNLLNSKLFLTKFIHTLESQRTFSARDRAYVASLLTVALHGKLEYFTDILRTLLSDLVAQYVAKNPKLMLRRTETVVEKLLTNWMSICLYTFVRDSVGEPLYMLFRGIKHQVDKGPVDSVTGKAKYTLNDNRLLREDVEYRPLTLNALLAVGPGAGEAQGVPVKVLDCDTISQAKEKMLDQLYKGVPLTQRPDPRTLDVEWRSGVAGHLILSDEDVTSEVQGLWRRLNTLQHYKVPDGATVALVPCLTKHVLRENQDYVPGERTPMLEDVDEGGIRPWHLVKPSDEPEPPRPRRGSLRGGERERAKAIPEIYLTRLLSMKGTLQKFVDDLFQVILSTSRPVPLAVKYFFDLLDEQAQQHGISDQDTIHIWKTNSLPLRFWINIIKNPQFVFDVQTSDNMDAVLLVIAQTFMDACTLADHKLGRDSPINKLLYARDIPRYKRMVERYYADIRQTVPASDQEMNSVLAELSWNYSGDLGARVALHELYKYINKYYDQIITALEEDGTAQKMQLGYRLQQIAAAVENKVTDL
UniProt Q92854: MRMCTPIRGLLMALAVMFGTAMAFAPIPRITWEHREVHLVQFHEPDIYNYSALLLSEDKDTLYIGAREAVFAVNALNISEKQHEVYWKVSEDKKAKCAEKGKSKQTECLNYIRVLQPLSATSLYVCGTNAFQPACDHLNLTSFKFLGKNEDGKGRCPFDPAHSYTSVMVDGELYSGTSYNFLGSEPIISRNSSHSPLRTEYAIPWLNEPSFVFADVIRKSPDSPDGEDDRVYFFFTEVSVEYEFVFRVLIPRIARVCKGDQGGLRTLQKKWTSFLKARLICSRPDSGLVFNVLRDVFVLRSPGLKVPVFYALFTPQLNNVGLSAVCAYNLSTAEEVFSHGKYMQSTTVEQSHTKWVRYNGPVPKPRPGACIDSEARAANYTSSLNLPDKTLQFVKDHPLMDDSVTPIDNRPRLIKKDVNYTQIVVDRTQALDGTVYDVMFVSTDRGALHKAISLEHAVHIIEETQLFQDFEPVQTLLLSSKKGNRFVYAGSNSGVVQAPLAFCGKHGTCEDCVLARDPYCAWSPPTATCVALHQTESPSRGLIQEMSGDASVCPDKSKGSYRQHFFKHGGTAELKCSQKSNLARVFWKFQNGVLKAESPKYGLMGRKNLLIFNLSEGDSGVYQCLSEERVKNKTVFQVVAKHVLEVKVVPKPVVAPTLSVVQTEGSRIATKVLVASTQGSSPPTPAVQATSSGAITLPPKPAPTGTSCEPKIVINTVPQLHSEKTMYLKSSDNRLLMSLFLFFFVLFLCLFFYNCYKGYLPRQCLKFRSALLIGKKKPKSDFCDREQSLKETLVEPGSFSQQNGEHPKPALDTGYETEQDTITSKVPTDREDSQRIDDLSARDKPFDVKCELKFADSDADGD

No constants are given. Whether binding was seen depends on the method and setting. Some binding calls cover weakened binding; strength is not graded here.

With “human CD100-His (C-terminal His tag) (from UniProt Q92854 22-734) (ligand)”, the binding entry in assay [1] was “binds”.

Turning to “marmoset CD100 (from UniProt A0A8I3W811 22-734) (ligand)”, the binding entry in assay [2] was “binds”.

The record behind these values is patent publication US20170306017A1.
